Assay results from article PMC8591801.
No constants are given. Whether binding was seen depends on the method and setting. Binding seen in cells or lysates may run through a third protein. Some binding calls cover weakened binding; strength is not graded here. Sequences can lack the tags named with a protein.

Chains of the proteins cited; added tags and fusions are not shown.
UniProt Q14258: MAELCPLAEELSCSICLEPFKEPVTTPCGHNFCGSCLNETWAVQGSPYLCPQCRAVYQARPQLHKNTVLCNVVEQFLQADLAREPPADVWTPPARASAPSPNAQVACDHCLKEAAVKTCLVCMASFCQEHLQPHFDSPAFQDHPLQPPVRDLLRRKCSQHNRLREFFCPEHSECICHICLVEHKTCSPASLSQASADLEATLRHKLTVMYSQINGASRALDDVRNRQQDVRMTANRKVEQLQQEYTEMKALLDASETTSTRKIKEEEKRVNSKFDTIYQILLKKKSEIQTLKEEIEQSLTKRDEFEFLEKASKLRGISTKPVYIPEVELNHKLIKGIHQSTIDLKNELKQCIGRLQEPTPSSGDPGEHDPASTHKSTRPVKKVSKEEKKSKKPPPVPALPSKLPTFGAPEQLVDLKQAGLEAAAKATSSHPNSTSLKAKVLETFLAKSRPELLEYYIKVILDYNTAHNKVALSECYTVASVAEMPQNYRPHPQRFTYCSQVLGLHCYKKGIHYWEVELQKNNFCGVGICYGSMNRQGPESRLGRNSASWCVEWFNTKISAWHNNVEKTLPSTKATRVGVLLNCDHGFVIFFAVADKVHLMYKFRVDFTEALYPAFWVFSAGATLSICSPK

Target: T1, Flag-CPEB4 (cytoplasmic polyadenylation element binding protein CPEB4) (human (cDNA from HEK293T cells)) (UniProt Q17RY0)
T1 sequence: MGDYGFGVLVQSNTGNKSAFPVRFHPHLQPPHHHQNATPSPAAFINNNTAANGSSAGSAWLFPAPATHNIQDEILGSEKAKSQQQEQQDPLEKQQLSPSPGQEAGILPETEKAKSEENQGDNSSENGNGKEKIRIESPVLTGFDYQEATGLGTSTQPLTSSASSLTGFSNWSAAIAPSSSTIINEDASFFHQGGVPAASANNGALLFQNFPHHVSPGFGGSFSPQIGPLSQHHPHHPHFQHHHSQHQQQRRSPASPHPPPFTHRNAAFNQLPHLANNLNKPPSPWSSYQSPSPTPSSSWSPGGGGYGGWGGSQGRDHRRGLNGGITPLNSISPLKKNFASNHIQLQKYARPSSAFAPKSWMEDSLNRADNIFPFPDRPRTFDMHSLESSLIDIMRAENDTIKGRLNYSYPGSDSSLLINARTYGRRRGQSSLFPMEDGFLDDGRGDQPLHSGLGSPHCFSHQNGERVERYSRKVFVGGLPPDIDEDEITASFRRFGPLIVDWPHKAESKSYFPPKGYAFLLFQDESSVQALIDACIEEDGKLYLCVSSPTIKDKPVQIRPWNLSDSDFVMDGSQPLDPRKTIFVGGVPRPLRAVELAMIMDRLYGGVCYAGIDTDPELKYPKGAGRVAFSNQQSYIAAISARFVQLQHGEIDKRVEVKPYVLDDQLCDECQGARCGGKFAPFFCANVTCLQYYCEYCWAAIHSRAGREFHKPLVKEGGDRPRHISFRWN
Experiment: co-IP; 293T cells transfected with the indicated constructs; lysates precleared, primary antibody with protein A/G agarose beads at 4 °C overnight, western blot; also with RNase A treatment and with cDOPEY2 silencing

**Q.** “myc-TRIM25 (E3 ligase TRIM25, wild type) (from UniProt Q14258 1-630) (enzyme)” was tested. Which binding did it give?
**A.** binds
